PubChem BioAssay AID1259308, NCATS – 2017

Purpose: 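Knock-downs that increase output of a recombinant reporter protein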 (primary screen)
System: human HEK293 embryonic kidney cells stably expressing firefly luciferase (HEK-CMV-Luc2-Hygro)
Reagent: single siRNA against human genes, 0.8 pmol siRNA per well
Time to read-out: 72 h
Detection: 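Reporter luminescence and viable-cell signal on separate replicate plates, given as percent of non-targeting control and median/MAD z-scores, plus per-cell luciferase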
Scale: total luciferase, z-score and total luciferase, % of control: higher = more reporter protein produced; luciferase per cell, z-score: higher = more reporter output per viable cell; viable cells, % of control: higher = more viable cells
Active means: 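Active when the median/MAD z-score for overall luciferase is greater than 3; a gene was taken forward for validation with new siRNAs if at least two of its three siRNAs passed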
Meaning of the calls: active = raised luciferase; inactive = no rise
Here is a random part of about 59,000 deposited reagents. About 1,510 of all reagents (2.6%) were called active. 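Calls use total luciferase alone and ignore viability, so some active siRNAs may act by altering cell number.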 Unmarked entries are inactive. Reagents against one gene are numbered here.

target | reagent no. | total luciferase, z-score | total luciferase, % of control | luciferase per cell, z-score | viable cells, % of control
NME1 | 1 | -0.994 | 62.1 | -1.25 | 96.3
NME1 | 2 | 0.0928 | 83.7 | 3.51 | 37.2
NME1 | 3 | 0.194 | 85.7 | 0.126 | 92.7
TBC1D10B | 1 | 0.00683 | 82 | -0.055 | 93
TBC1D10B | 2 | 0.247 | 86.8 | 0.343 | 88.6
TBC1D10B | 3 | -1.35 | 55.1 | -1.4 | 89
SMOX | 1 | -0.438 | 73.2 | 0.179 | 78
SMOX | 2 | 0.337 | 88.6 | 0.597 | 84.6
SMOX | 3 | 0.0669 | 83.2 | -0.0237 | 93.6
YIF1A | 1 | -0.539 | 71.2 | -0.362 | 87.5
YIF1A | 2 | -0.77 | 66.6 | -1.29 | 104
YIF1A | 3 | 1.71 | 116 | 2.59 | 65.6
GFER | 1 | 0.0846 | 83.6 | -0.108 | 96.1
GFER | 2 | -2.26 | 37 | -1.58 | 62.6
GFER | 3 | 1.65 | 115 | 1.15 | 94.8
KIR2DL5B | 1 | -0.0596 | 80.7 | 0.844 | 72.2
KIR2DL5B | 2 | 1.08 | 103 | 2.37 | 62
KIR2DL5B | 3 | 2.2 | 126 | 2.62 | 70.5
PRMT2 | 1 | 0.273 | 87.3 | 0.674 | 81.7
PRMT2 | 2 | 1.42 | 110 | 1.62 | 80.2
PRMT2 | 3 | -0.569 | 70.6 | 0.0437 | 78
GP9 | 1 | 1.48 | 111 | 1.51 | 83.6
GP9 | 2 | -0.406 | 73.8 | 0.741 | 67.9
GP9 | 3 | 2.14 | 125 | 1.45 | 94.9
TCEA1 | 1 | -0.5 | 71.9 | -0.935 | 103
TCEA1 | 2 | -0.0878 | 80.1 | 0.0226 | 89
TCEA1 | 3 | -0.0135 | 81.6 | 0.996 | 70.2
SLC15A3 | 1 | -0.584 | 70.3 | -0.301 | 85
SLC15A3 | 2 | 0.482 | 91.5 | 0.641 | 86.3
SLC15A3 | 3 | -2.94 | 23.5 | -4.32 | 81.7
KRTAP4-7 | 1 | 2.22 | 126 | 1.37 | 98.3
KRTAP4-7 | 2 | -0.377 | 74.4 | -0.947 | 107
KRTAP4-7 | 3 | -0.0603 | 80.7 | -0.141 | 93.6
IGIP | 1 | 0.842 | 98.6 | 0.468 | 97.4
IGIP | 2 | 0.759 | 97 | 1.27 | 77.7
IGIP | 3 | -0.72 | 67.6 | -0.87 | 94.9
TGFB3 | 1 | -0.369 | 74.5 | -0.226 | 88.4
TGFB3 | 2 | 2.52 | 132 | 1.54 | 98.4
TGFB3 | 3 | -0.377 | 74.4 | -0.49 | 94.6
DUSP4 | 1 | -1.81 | 45.9 | -1.48 | 75.8
DUSP4 | 2 | 1.39 | 109 | 0.621 | 104
DUSP4 | 3 | -1.87 | 44.7 | -2.46 | 95.5
ZYG11A | 1 | 0.156 | 85 | -0.00239 | 95
ZYG11A | 2 | 3.1 (active) | 144 | 3.05 | 71.9
ZYG11A | 3 | 0.19 | 85.7 | -0.000836 | 95.7

Looked up above:
For “viable cells, % of control”, KRTAP4-7 #1 reads 98.3
Value for KRTAP4-7 #3 in “luciferase per cell, z-score”: -0.141
IGIP #1, luciferase per cell, z-score → 0.468
Value for TBC1D10B #3 in “total luciferase, z-score”: -1.35
NME1 #1, total luciferase, z-score = -0.994

Next entries follow.
target | reagent no. | total luciferase, z-score | total luciferase, % of control | luciferase per cell, z-score | viable cells, % of control
IRGM | 1 | -0.16 | 78.7 | 0.59 | 75.3
IRGM | 2 | 2.36 | 129 | 2.31 | 78.4
IRGM | 3 | -2.27 | 36.8 | -2.43 | 78
SPOPLP2 | 1 | -1.64 | 49.2 | -0.876 | 69.2
SPOPLP2 | 2 | -1.73 | 47.5 | -1.25 | 73.8
SPOPLP2 | 3 | -0.821 | 65.6 | -0.593 | 85.6
RAD54B | 1 | 0.826 | 98.3 | 0.851 | 87.8
RAD54B | 2 | -1.19 | 58.3 | -1.35 | 92.8
RAD54B | 3 | -0.69 | 68.2 | -0.625 | 89.8
OXNAD1 | 1 | 1.07 | 103 | 1.38 | 80.1
OXNAD1 | 2 | -0.366 | 74.6 | -0.324 | 90.8
OXNAD1 | 3 | -0.555 | 70.8 | -0.688 | 94.9
CNR2 | 1 | -0.444 | 73.1 | -0.248 | 87.1
CNR2 | 2 | -1.28 | 56.4 | -1.36 | 90.2
CNR2 | 3 | -0.212 | 77.7 | -0.216 | 91.9
ORC2 | 1 | -0.0931 | 80 | 0.433 | 79.8
ORC2 | 2 | 1.83 | 118 | 1.43 | 90.6
ORC2 | 3 | -1.01 | 61.7 | -1.21 | 94.8
CIC | 1 | 1.42 | 110 | 2.43 | 64.8
CIC | 2 | 0.218 | 86.2 | 0.123 | 93.3
CIC | 3 | 1.29 | 108 | 1.14 | 89
RARS1 | 1 | 0.0701 | 83.3 | -0.167 | 97.3
RARS1 | 2 | -0.4 | 73.9 | -1.02 | 108
RARS1 | 3 | -0.0705 | 80.5 | -0.753 | 110
KCTD7 | 1 | 1.29 | 108 | 2.22 | 67
KCTD7 | 2 | 0.00887 | 82.1 | 0.304 | 84.6
KCTD7 | 3 | -1.61 | 49.9 | -2.04 | 95.3
NLRP2 | 1 | -0.411 | 73.7 | 0.163 | 78.9
NLRP2 | 2 | 0.259 | 87 | -0.0764 | 99.2
NLRP2 | 3 | 0.304 | 87.9 | -0.135 | 102
